For at least one compound, name, drawing or mass did not settle the structure.
Experiment: Stability of TMZ in organic solvents by UV-Vis spectroscopy
Assay type: physicochemical
Procedure: This observation prompted investigation of the stability of TMZ in organic solvents, a property not previously reported to our knowledge. Solutions of TMZ (0.01 milligram per milliliter concentration) in 1:1 MeOH:DMSO, DMSO, ACN, and 2,2,2-trifluoroethanol (TFE) were incubated at room temperature, as well as elevated temperatures (e.g., 50° C. and 70° C.). […] The marked difference in stability of TMZ observed between MeOH and TFE was attributed to the poor nucleophilicity of the latter, which precludes rapid imidazotetrazine solvolysis.

Cn1nnc2c(C(N)=O)ncn2c1=O [TMZ, Temozolomide]
absorption spectrum of TMZ after incubation in ACN (0.01 mg/ml in ACN, 24 hour, room temperature, 50° C. and 70° C.): unchanged | absorption spectrum of TMZ after incubation in DMSO (0.01 mg/ml in DMSO, 24 hour, room temperature, 50° C. and 70° C.): unchanged | time stable in TFE (0.01 mg/ml in TFE, temperatures up to 70° C.): greater than 24 hours
